What all share (type): cell-based, human
Assay [1] concerns HeLa (Cervical cancer cell line). Nature of the assay: Anti-proliferative assay (Cell Titer-Glo), HeLa. The settings on record: Table 1, reference compounds; read-out: IC50 HeLa cells. How it is done:
(§1) Cell culture & Reagents: All cell lines, used for the anti-proliferative screen, were obtained from American Type Culture Collection (ATCC). HeLa (Cervical cancer cell line), MCF-7 (Breast cancer cell line) and DU-145 (Prostate cancer cell line) were cultured in Dulbecco's modified Eagle's medium (DMEM, GIBCO), containing 10% fetal bovine serum (FBS; Life Technologies), penicillin and streptomycin (10,000 U/mL), at 37° C. and in 5% CO2. Cell Titer-Glo® Luminescent Cell Viability Assay kit (Cat No. G7573) was purchased from Promega to determine the number of viable cells in culture based on quantitation of the ATP present, which signals the presence of metabolically active cells.
(§2) Anti-Proliferative assay: For anti-proliferative screening, 2500 cells per well (For HeLa and DU-145 cell lines) and 5000 cells per well (for MCF-7 cell line) numbers of cells were seeded in a white opaque plate and incubated for 24 Hrs in 5% CO2 incubator at 37° C. […] After incubating at room temperature for 30 minutes, luminescence was captured using luminescence plate reader (EnVision® Multilabel Plate Reader from Perkin Elmer). Generated data was exported to the excel file and data was analyzed using Graph Pad Prism to calculate IC50 value of the unknown inhibitor. […]

Assay [2] relates to SKOV3 (Ovarian cancer cells). Nature of the assay: Anti-proliferative assay, SKOV3. The settings on record: Table 1, reference compounds. How it is done: as §1, §2
Assay [3] concerns MCF-7 (Breast cancer cell line). Nature of the assay: Anti-proliferative assay (Cell Titer-Glo), MCF-7. The settings on record: Table 1, reference compounds; read-out: IC50 MCF-7 cells. On the procedure:
as §1, §2

For `O=C(CCCCCCC(=O)Nc1ccccc1)NO` [SAHA], the figures for the IC50 in assay [1], in assay [2] and in assay [3] were 2390 nM, 1400 nM and 613 nM, respectively.

The values are drawn from patent US11072583B2, “Indole (sulfomyl) n-hydroxy benzamide derivatives as selective HDAC inhibitors” (COUNCIL OF SCIENTIFIC & INDUSTRIAL RESEARCH, priority 2017, dated 2021).
